Assay results reported in patent publication US10022342B2, “Methods and compositions for treating multiple myeloma” (Ohio State Innovation Foundation, priority 2015, dated 2018).

System: MM cells
Test: IC50 concentrations of HDAC inhibitors in MM cells
Assay type: cell-based
Details: Homo sapiens

IC50: 1000 nM
Compound: O=C(CCCCCCC(=O)Nc1ccccc1)NO [SAHA, suberoylanilide hydroxamic acid, reference compound]
